Source: PubChem BioAssay AID2685 (National Center for Advancing Translational Sciences (NCATS), 2010)
The other results are listed elsewhere or left out. The main result of the screen is listed elsewhere. These columns were measured beside it and carry no call. The list favours compounds with an active or inconclusive main result. The note in brackets gives the kind of curve behind each potency; many fits are weak.

Assay: qHTS Assay for Lipid Storage Modulators in Drosophila S3 Cells;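 for cell number change: cells counted by Cell Tracker Red CMTPX staining in the red channel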
Conditions: BODIPY lipid droplet fluorescence, 18-24 h; for cell number change: measured here: cell count max response, cells fed with added oleic acid
In short: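 Laser-scanning cytometry quantifies lipid droplet accumulation (500–530 nm total intensity; droplet/cell object ratio) in oleic acid-fed (400 uM added) Drosophila S3 cells treated with a concentration series. 20 uM Triacsin C defined 100% inhibition.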

[1] = measured here: cell number channel AC50, cells fed with added oleic acid
[2] = measured here: lipid fluorescence (Fed channel) AC50, cells fed with added oleic acid

Compound	cell number change [%]	AC50 [1]	AC50 [2]
N=c1sccn1CC(=O)NCCc1ccc(Cl)cc1Cl	-33.5	0.651 µM [falling, full curve, poor fit]	3.66 µM [falling, full curve]
CCN(Cc1ccccc1)C(=O)c1cc(S(=O)(=O)N2CCOCC2)cn1C	10.7	–	3.26 µM [rising, single point]
CCCc1nnc(NC(=O)c2oc3ccccc3c2COCC)s1	-32.5	–	–
C=CCn1c(COc2ccccc2)nc2ccccc21	-8.31	–	3.26 µM [rising, single point]
O=C(O)CSc1nnnn1-c1ccccc1	-2.32	0.184 µM [falling, full curve, poor fit]	–
C=CCn1c(COc2cccc3cccnc23)nnc1SCC(=O)O	-10.6	–	5.8 µM [falling, full curve]
O=C(NN1CCOCC1)C12CC3CC(CC(C3)C1)C2	6.98	–	1.16 µM [falling, single point]
O=C(NCCc1ccccc1)c1ccc(S(=O)(=O)N2CCCC2)cc1	11.4	–	0.461 µM [falling, partial curve]
COc1ccc(N(C)C(=S)Oc2ccc(C(=O)Nc3ccccc3)cc2)cc1	-15.6	0.00461 µM [falling, full curve, poor fit]	–
C=CCNC(=O)/C(C#N)=C/c1ccccc1[N+](=O)[O-]	-42.1	8.2 µM [falling, partial curve, poor fit]	–
COc1ccc(S(=O)(=O)N2CCN(C(=O)C3CCC3)CC2)cc1	25	6.51 µM [rising, partial curve, poor fit]	–
COc1ccc(CN2CCN(C(=O)CCC(=O)Nc3nnc(C(F)(F)F)s3)CC2)cc1F	4.78	–	0.326 µM [falling, partial curve, poor fit]
Cc1ccc(NC(=O)CN2CCCN(S(=O)(=O)c3ccc(Br)s3)CC2)cc1	49.4	6.51 µM [rising, partial curve]	2.59 µM [rising, partial curve]
Cc1ccc(NS(=O)(=O)c2ccc3c(c2)CCC(=O)N3)cc1	-13.8	–	25.9 µM [falling, single point]
NS(=O)(=O)c1ccc(CCNC(=O)C(=O)NCC2OCCN2C(=O)c2ccc3c(c2)OCO3)cc1 (stereo unspecified)	-24.6	1.84 µM [falling, partial curve, poor fit]	–
CN(C)S(=O)(=O)c1cccc(NC(=S)NC2CCCCC2)c1	9.97	–	4.61 µM [rising, full curve, poor fit]

Individual results from the list.
CCCc1nnc(NC(=O)c2oc3ccccc3c2COCC)s1 – cell number change [%]: -32.5
O=C(NN1CCOCC1)C12CC3CC(CC(C3)C1)C2 – AC50 [2]: 1.16 µM [falling, single point]

(listing goes on)

Compound	cell number change [%]	AC50 [1]	AC50 [2]
COc1ccc(-c2csc(CCn3nc(C)cc3C)n2)cc1	24.1	–	2.06 µM [rising, partial curve, poor fit]
CCOC(=O)CNc1nc(Cl)nc(N2CCCCC2)n1	-19	–	–
CCC(=O)Nc1cc(C(=O)OCc2ccc(C(=O)Oc3ccccc3)cc2)ccc1C	8.96	–	14.6 µM [rising, partial curve, poor fit]
CC(C)Nc1nc(NC(C)C)nc(Oc2ccc(OCc3ccccc3)nn2)n1	–	–	29.1 µM [falling, single point]
O=C(NNC(=O)c1cccs1)c1ccc(Cl)nc1	-34	10.3 µM [falling, partial curve, poor fit]	–
CCOc1ccc(-c2nnc(NC(=O)C3CCCC3)o2)cc1	2.38	–	–
Nc1ccc(C(=O)Nc2cccc3ncccc23)cc1	-6.63	–	6.51 µM [falling, single point]
N#Cc1ccc2ccn(CC(=O)NCc3ccco3)c2c1	9.02	–	13 µM [rising, single point]
S=C(NCCNC(=S)Nc1ccccc1Cl)Nc1ccccc1Cl	7.08	–	–
CCN(CC)C(=O)c1cccc(NC(=O)c2cc(C3CC3)nc3c2cnn3C(C)C)c1	-10.6	–	0.13 µM [falling, full curve, poor fit]
CCN1C(=O)/C(=C\c2ccc3c(c2)OCO3)C(C(=O)OC)=C1C	-15.5	0.00461 µM [falling, partial curve, poor fit]	–
Cc1cc(C)c2c(=O)[nH]c(SCC(=O)N3CCOCC3)nc2n1	16.4	–	–
CN1CCCN(C(=O)c2ccc(Br)s2)CC1	-17.1	–	–
O=C(NCC1CCCO1)c1cc2c([nH]c3ccccc32)c(-c2cccc(Cl)c2)n1 (stereo unspecified)	21	–	6.51 µM [falling, full curve]
CCOC(=O)N1CCN(c2c(NCCOC)c(=O)c2=O)CC1	–	–	0.82 µM [rising, full curve]
